Laboratory results: US20060053496A1
No constants are given. Whether binding was seen depends on the method and setting. Binding seen in cells or lysates may run through a third protein. Binding can be weak; no strength is given. Sequences can lack the tags named with a protein.

How the values were obtained:
α-tubulin [1] = experiment: summary sentence of Example 2 (co-immunoprecipitation)
β-tubulin [2] = experiment: as above
α-tubulin [3] = experiment: anti-FLAG co-immunoprecipitation from 293T cells, 2D gel, MALDI-MS
β-tubulin [4] = experiment: as above

Measured: binding

B1: FLAG-tagged Monarch-1 (protein, not shown: small tags and cut ends)
chain: MLRTAGRDGLCRLSTYLEELEAVELKKFKLYLGTATELGEGKIPWGSMEKAGPLEMAQLLITHFGPEEAWRLALSTFERINRKDLWERGQREDLVRDTPPGGPSSLGNQSTCLLEVSLVTPRKDPQETYRDYVRRKFRLMEDRNARLGECVNLSHRYTRLLLVKEHSNPMQVQQQLLDTGRGHARTVGHQASPIKIETLFEPDEERPEPPRTVVMQGAAGIGKSMLAHKVMLDWADGKLFQGRFDYLFYINCREMNQSATECSMQDLIFSCWPEPSAPLQELIRVPERLLFIIDGFDELKPSFHDPQGPWCLCWEEKRPTELLLNSLIRKKLLPELSLLITTRPTALEKLHRLLEHPRHVEILGFSEAERKEYFYKYFHNAEQAGQVFNYVRDNEPLFTMCFVPLVCWVVCTCLQQQLEGGGLLRQTSRTTTAVYMLYLLSLMQPKPGAPRLQPPPNQRGLCSLAADGLWNQKILFEEQDLRKHGLDGEDVSAFLNMNIFQKDINCERYYSFIHLSFQEFFAAMYYILDEGEGGAGPDQDVTRLLTEYAFSERSFLALTSRFLFGLLNEETRSHLEKSLCWKVSPHIKMDLLQWIQSKAQSDGSTLQQGSLEFFSCLYEIQEEEFIQQALSHFQVIVVSNIASKMEHMVSSFCLKRCRSAQVLHLYGATYSADGEDRARCSAGAHTLLVQLRPERTVLLDAYSEHLAAALCTNPNLIELSLYRNALGSRGVKLLCQGLRHPNCKLQNLRLKRCRISSSACEDLSAALIANKNLTRMDLSGNGVGFPGMMLLCEGLRHPQCRLQMIQLRKCQLESGACQEMASVLGTNPHLVELDLTGNALEDLGLRLLCQGLRHPVCRLRTLWLKICRLTAAACDELASTLSVNQSLRELDLSLNELGDLGVLLLCEGLRHPTCKLQTLRLGICRLGSAACEGLSVVLQANHNLRELDLSFNDLGDWGLWLLAEGLQHPACRLQKLWLDSCGLTAKACENLYFTLGINQTLTDLYLTNNALGDTGVRLLCKRLSHPGCKLRVLWLFGMDLNKMTHSRLAALRVTKPYLDIGC
binds: all assays above
